Measurements taken from article PMC7819943, “Rice protein-binding microarrays: a tool to detect cis-acting elements near promoter regions in rice”.
This is one part of the list.

Sequences of proteins named here, by UniProt entry; tags and fusion partners are left off.
UniProt Q0JBA9, entry or part of it: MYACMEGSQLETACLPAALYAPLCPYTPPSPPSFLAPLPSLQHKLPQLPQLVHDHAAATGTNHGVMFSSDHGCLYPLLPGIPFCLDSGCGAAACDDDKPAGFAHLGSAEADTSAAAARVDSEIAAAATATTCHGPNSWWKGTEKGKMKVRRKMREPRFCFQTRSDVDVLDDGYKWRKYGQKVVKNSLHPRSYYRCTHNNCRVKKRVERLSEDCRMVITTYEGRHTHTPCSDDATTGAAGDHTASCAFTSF

The sequences below were run against OsWRKY34 (Oryza sativa, UniProt Q0JBA9 1-250) (assay: protein-binding microarray (RPBM); PBS, 2% BSA, 51.3 ng/ul salmon testes DNA, 50 uM zinc acetate, 200 nM TF, 25 C, 1 h; high values mean tight binding). Settings: protein: recombinant; tags: N-terminal polyhistidine and DsRed monomer fusion (pET32a); label: CyDye5-dUTP incorporated in the synthesized complementary strand; 3' TTTTT single-stranded linker to array surface; dsDNA, one strand shown.
Procedure, shortened: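 A custom Agilent array was converted to double-stranded form by primer extension with Cy5-dUTP and blocked with 2% BSA. Protein at 200 nM in PBS with 2% BSA, salmon testes DNA and 50 µM zinc acetate was applied for 1 h at 25 °C, followed by washing. The proteins were polyhistidine–DsRed N-terminal fusions of transcription factors, expressed in E. coli BL21-CodonPlus and Ni–NTA-purified. The binding signal is per-feature fluorescence intensity (arbitrary units) from an Axon 4000B scanner.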
For “ACTATAGTCTGCTTTCCGAATTTACCTCTCTGCCGGCCTTCGGAGTCACCTAGTGCAG”, the binding signal was 15600 fluorescence intensity (a.u.).
In the case of “TTCGATCGTATATTTTACTTTTGTTTTTTTTAAGGTCTTCCGGAGTCACCTAGTGCAG”, the binding signal was 9880 fluorescence intensity (a.u.).
With “CCGATCCCGAGGAGAGAGGAAGGGGAGGGGCGCTGTATTACGGAGTCACCTAGTGCAG” the binding signal was 12600 fluorescence intensity (a.u.).
With “TTTGCAAATATGGCTAATTACGGTCCGTCTGCAACCAAATCGGAGTCACCTAGTGCAG” the binding signal was 8110 fluorescence intensity (a.u.).
In the case of “TGACTCTATTTTTTCCTTCGGTCTGCTGTCTGCACTCTGGCGGAGTCACCTAGTGCAG”, the binding signal was 11300 fluorescence intensity (a.u.).
For “CGGCCCGCCACAACTGCTGTCGTTCCTAGTTCCTCGCCGTCGGAGTCACCTAGTGCAG”, the binding signal was 8580 fluorescence intensity (a.u.).
For “TGCAGTGGCAGGGGTGTGTGATTTCAACTTCGAGTTTCCGCGGAGTCACCTAGTGCAG”, the binding signal was 8080 fluorescence intensity (a.u.).
“AGGGACAGAGAAAGCAAGCACAACCGTTCATATCGATCCCCGGAGTCACCTAGTGCAG” was tested, and the binding signal was 8750 fluorescence intensity (a.u.).
“CCGTCCCGTCTCCTCAGCTCCTTGCGCCATCTCGCTGCTGCGGAGTCACCTAGTGCAG” was tested, and the binding signal was 10200 fluorescence intensity (a.u.).
With “GCAAACTCGGTTAGTGTTAGTTATCGTTTTTCCGTTTTTTCGGAGTCACCTAGTGCAG” the binding signal was 8820 fluorescence intensity (a.u.).
For “TTTTCTTTTTTTTTTCCTTTTCCTTTTTTCTTTTCAATTTCGGAGTCACCTAGTGCAG”, the binding signal was 10900 fluorescence intensity (a.u.).
For “GCATGTTGTTTTACTCAATTCCTAAGGTGCTGTAGACAGCCGGAGTCACCTAGTGCAG”, the binding signal was 8400 fluorescence intensity (a.u.).
“GAGGAAGTGGTTGCGCCGACGACGAGGTGAGCGGGTTGACCGGAGTCACCTAGTGCAG” was tested, and the binding signal was 8860 fluorescence intensity (a.u.).
In the case of “AACTTATGAGAGGCGGTTGACTTGACTGCACATATGCAAACGGAGTCACCTAGTGCAG”, the binding signal was 8030 fluorescence intensity (a.u.).
For “GCTATTGCTTAGGATCTGCTTTCACCTTGCTAGCTCCGATCGGAGTCACCTAGTGCAG”, the binding signal was 8570 fluorescence intensity (a.u.).
With “TACAGCGTCCTGTTTGTTTGTGTTGGGGCGTGGCAGTGTCCGGAGTCACCTAGTGCAG” the binding signal was 8420 fluorescence intensity (a.u.).
In the case of “TTGTGTGATAGTGTGGGTTGCGTTCTTTTTTTAGTGTGTACGGAGTCACCTAGTGCAG”, the binding signal was 9030 fluorescence intensity (a.u.).
For “AACAGTCAGTGTGTATATCCTGTATCTGTCACACCTCTTTCGGAGTCACCTAGTGCAG”, the binding signal was 8450 fluorescence intensity (a.u.).
With “CTTGTCCATGGTGCAGTTCATCTTGTTGATCCTTGCAGATCGGAGTCACCTAGTGCAG” the binding signal was 9410 fluorescence intensity (a.u.).
“TGTCCATTCGTCCTCATCCCACAAACCCCTGAGCGAGCGACGGAGTCACCTAGTGCAG” was tested, and the binding signal was 11800 fluorescence intensity (a.u.).
In the case of “CGCGTAATAATATTTGGAGAAAGTCAACCACGCGTTCCATCGGAGTCACCTAGTGCAG”, the binding signal was 8070 fluorescence intensity (a.u.).
For “AACTCGCTAGTCTCAACTTACTACACATGGTTGTCTATATCGGAGTCACCTAGTGCAG”, the binding signal was 9020 fluorescence intensity (a.u.).
For “GTTCACTTTGACGGGCCACCACCAAGTCGCCTCCTCAGATCGGAGTCACCTAGTGCAG”, the binding signal was 8400 fluorescence intensity (a.u.).
“GTGTTGTGTTTATTTTTTTATAATATCCATGATTGTAATCCGGAGTCACCTAGTGCAG” was tested, and the binding signal was 9640 fluorescence intensity (a.u.).
With “AGACTTGGTAGTTGAGGCGGGGTGGAGGAAACTAACCGGACGGAGTCACCTAGTGCAG” the binding signal was 8210 fluorescence intensity (a.u.).
“TCTTTCGGAGGTGCTCATAGGGGTAGGGTGTACGTGTGTGCGGAGTCACCTAGTGCAG” was tested, and the binding signal was 15400 fluorescence intensity (a.u.).
With “GCCATCCACTTGTGCTGCCAATTTGCTCAATCCCGACAAGCGGAGTCACCTAGTGCAG” the binding signal was 8220 fluorescence intensity (a.u.).
For “CAAGGTTATATCCCTAGTCAGTCTATCTATCTATCTATCCCGGAGTCACCTAGTGCAG”, the binding signal was 8500 fluorescence intensity (a.u.).
In the case of “TACTAATTGTGTCATCATTCGTATTTACTCCCTCCGTTTCCGGAGTCACCTAGTGCAG”, the binding signal was 9780 fluorescence intensity (a.u.).
In the case of “TTCACCGTTTCTCACGCTGTTACTACGAGTCCGTAAAAACCGGAGTCACCTAGTGCAG”, the binding signal was 8140 fluorescence intensity (a.u.).
For “GTTTTGTGCTCCATGGTGTCCGGGCACCATTGTTGAAATTCGGAGTCACCTAGTGCAG”, the binding signal was 8060 fluorescence intensity (a.u.).
With “TGTTTGTTCCGTTTCGTGATGTTTTGGGCCGGCCCAAGAACGGAGTCACCTAGTGCAG” the binding signal was 9960 fluorescence intensity (a.u.).
“AACCACCGATCTACATCCAATTCCATGGTCACTTTCTCTCCGGAGTCACCTAGTGCAG” was tested, and the binding signal was 8040 fluorescence intensity (a.u.).
With “GGCTTGGCTCCTCTTCTTCTTATCCCTTGTCCTCGCAACCCGGAGTCACCTAGTGCAG” the binding signal was 9430 fluorescence intensity (a.u.).
For “CCAAGTAGCCAACACCACGCCTCGATCGATCGGAACACACCGGAGTCACCTAGTGCAG”, the binding signal was 8080 fluorescence intensity (a.u.).
In the case of “GATTTCTTCTTGGGCTGATCTTGGTGCCAGACTGTTTTGCCGGAGTCACCTAGTGCAG”, the binding signal was 8680 fluorescence intensity (a.u.).
With “AATTTCGCAGCTGTGCCTGTGCTTACTTGCAGCTAATCTGCGGAGTCACCTAGTGCAG” the binding signal was 9400 fluorescence intensity (a.u.).
With “TTTTGCCTTTTTCGAGGTTAAGCAACTTGTGCTAGTTTTCCGGAGTCACCTAGTGCAG” the binding signal was 8160 fluorescence intensity (a.u.).
In the case of “GCGTCCATGACCACTCCTTGCCGCCCCTTGCACGCCATGTCGGAGTCACCTAGTGCAG”, the binding signal was 10100 fluorescence intensity (a.u.).
In the case of “ACACTGCAACCTGTGTTCGCTTTTCTGAACAATCCTGACACGGAGTCACCTAGTGCAG”, the binding signal was 8390 fluorescence intensity (a.u.).
“GGATTTCTCGTCGTTTCTTGCGTGCGGTTGCGTTCTTGATCGGAGTCACCTAGTGCAG” was tested, and the binding signal was 10700 fluorescence intensity (a.u.).
“TATCCTTATCTCTTTCTCCTTCTCTCTACCCTTCGTCAACCGGAGTCACCTAGTGCAG” was tested, and the binding signal was 8110 fluorescence intensity (a.u.).
